Substitutions are numbered along the chain they refer to. These are yes or no findings as the source states them, for the method shown. Where a sequence is shown, tags or fusion partners need not be part of it.

Sequences of proteins named here, by UniProt entry; tags and fusion partners are left off. Residues count along the entry.
UniProt Q14116, residues 37-193: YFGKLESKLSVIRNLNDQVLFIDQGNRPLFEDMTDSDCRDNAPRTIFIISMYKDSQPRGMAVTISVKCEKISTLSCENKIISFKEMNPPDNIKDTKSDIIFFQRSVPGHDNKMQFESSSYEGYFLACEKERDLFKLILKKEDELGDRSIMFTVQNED

The target of assay [1] is T1, IL-18Rβ Y212A, C-terminal 6xHis tagged extracellular domains (residues 15-356), for SPR (human) (UniProt O95256).
T1 sequence: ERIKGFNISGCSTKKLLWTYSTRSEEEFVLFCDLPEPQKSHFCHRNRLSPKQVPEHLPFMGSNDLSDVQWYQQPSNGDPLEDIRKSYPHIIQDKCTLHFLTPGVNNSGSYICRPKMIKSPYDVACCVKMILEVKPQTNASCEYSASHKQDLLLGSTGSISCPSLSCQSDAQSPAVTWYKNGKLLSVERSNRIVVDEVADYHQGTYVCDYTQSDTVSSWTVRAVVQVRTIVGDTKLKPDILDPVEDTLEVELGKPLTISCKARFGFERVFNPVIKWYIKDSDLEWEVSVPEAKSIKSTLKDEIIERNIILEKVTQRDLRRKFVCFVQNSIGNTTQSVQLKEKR
Nature of the assay: SPR; BIAcore 3000, 25 °C, C-terminal 6xHis IL-18Rβ immobilised (~100 RU) on an NTA sensor chip, un-tagged IL-18Rα saturated with 500 nM IL-18 as analyte in HBS-P; both purified. (In general: SPR reads the build-up and loss of mass on a sensor chip optically.)

Assay [2] deals with T2, human IL-18 receptor alpha extracellular domain (residues 20-329), C-terminal 6xHis, R123A-T126A-S127A-K128A (human) (UniProt Q13478).
T2 sequence: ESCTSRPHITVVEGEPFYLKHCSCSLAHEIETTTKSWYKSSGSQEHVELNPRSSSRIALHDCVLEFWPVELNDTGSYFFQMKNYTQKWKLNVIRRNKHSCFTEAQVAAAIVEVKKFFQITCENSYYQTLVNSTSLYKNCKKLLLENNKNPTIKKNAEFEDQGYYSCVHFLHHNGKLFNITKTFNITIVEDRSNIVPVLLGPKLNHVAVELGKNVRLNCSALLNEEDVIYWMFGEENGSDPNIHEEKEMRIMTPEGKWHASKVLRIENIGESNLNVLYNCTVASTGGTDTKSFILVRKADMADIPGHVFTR
Briefly: SPR; BIAcore 3000, 25 °C; C-terminal 6xHis IL-18Rα (wild type or mutant) immobilised at about 200 RU on a Ni-NTA sensor chip; IL-18 (wild type or mutant) injected as analyte in HBS-P (10 mM HEPES-Na pH 7.4, 150 mM NaCl, 0.01% P-20), 30 µl/min, 180 s association, 360 s dissociation; triplicate; both purified.

The target in assay [3] is T3, human IL-18 receptor alpha extracellular domain (residues 20-329), C-terminal 6xHis, E253A-E254A-E263A (human) (UniProt Q13478).
T3 sequence: T2 sequence with A104R, A107T, A108S, A109K, E234A, E235A, E244A
Described as above.

Assay [4] has as its target T4, human IL-18 receptor alpha extracellular domain (residues 20-329), C-terminal 6xHis, T23A-R25A-H27A-T29A (human) (UniProt Q13478).
T4 sequence: T2 sequence with T4A, R6A, H8A, T10A, A104R, A107T, A108S, A109K
Described as above.

Turning to “IL-18 WT/IL-18Rα WT complex (SPR analyte) (from UniProt Q14116 37-193; Q13478 20-329)”, the binding result in assay [1] is “no binding”.

Take “human interleukin-18, mature (residues 1-157), wild type (from UniProt Q14116 37-193) (ligand)”: the binding result in assay [2], in assay [3] and in assay [4] was “no binding” throughout.

The values above are taken from PMC4275594.
